{"source": "PubChem BioAssay AID504791 (Drosophila RNAi Screening Center, 2011)", "aim": "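Factors in Argonaute-based small RNA production and activity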 (primary screen)", "cells": "Drosophila S2-derived reporter cells", "reagent": "long dsRNA against Drosophila genes, about 150-250 ng dsRNA per well (siRNA assay); about 80-120 ng (miRNA assay)", "timing": "about 5 days (siRNA assay); about 4 days (miRNA assay)", "treatment": "copper sulfate induction of reporters: 25 µM (siRNA assay); 200 mM stated (miRNA assay), 1-2 days before reading", "measured": "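Per-well ratio of Renilla over firefly light, expressed relative to that plate's average ratio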", "active means": "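First-pass picks had plate-scaled ratios over 1.5 for the siRNA assay, over 1.6 for the miRNA assay, or under 0.6; two distinct dsRNAs had to score alike on retest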", "note": "The screen tested about 23,000 reagents; below is an unselected part of those with a known target gene and a result. In the full data, 199 (0.86%) got an active call. 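Plate-scaled ratios behind the calls are not deposited; printed light signals are raw; many rows marked increased or decreased are still called inactive.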 The numbers tell different reagents against one gene apart. Not given: the direction of the score."}
{"gene knocked down": "CG7166", "reagent no.": 1, "stable assay Renilla, run 1 (luminescence)": 8265, "stable assay firefly, run 1 (luminescence)": 4.74e5, "call": "inactive"}
{"gene knocked down": "Pkg21D (Protein kinase, cGMP-dependent at 21D)", "reagent no.": 1, "stable assay Renilla, run 1 (luminescence)": 28189, "stable assay firefly, run 1 (luminescence)": 2.38e5, "call": "inactive"}
{"gene knocked down": "RpL11 (Ribosomal protein L11)", "reagent no.": 1, "stable assay Renilla, run 1 (luminescence)": 10672, "stable assay firefly, run 1 (luminescence)": 3.40e5, "call": "inactive"}
{"gene knocked down": "CG16854", "reagent no.": 1, "stable assay Renilla, run 1 (luminescence)": 7580, "stable assay firefly, run 1 (luminescence)": 3.06e5, "call": "inactive"}
{"gene knocked down": "CG32106", "reagent no.": 1, "stable assay Renilla, run 1 (luminescence)": 4512, "stable assay firefly, run 1 (luminescence)": 3.09e5, "call": "inactive"}
{"gene knocked down": "Pp1-87B (Protein phosphatase 1 at 87B)", "reagent no.": 1, "stable siRNA reporter change": "reporter ratio raised past the hit cutoff", "stable assay Renilla, run 1 (luminescence)": 16250, "stable assay firefly, run 1 (luminescence)": 4.37e5, "call": "inactive"}
{"gene knocked down": "Pp1-87B (Protein phosphatase 1 at 87B)", "reagent no.": 2, "stable siRNA reporter change": "reporter ratio lowered past the hit cutoff", "stable assay Renilla, run 1 (luminescence)": 2528, "stable assay firefly, run 1 (luminescence)": 3.05e5, "call": "inactive"}
{"gene knocked down": "CG9992", "reagent no.": 1, "stable assay Renilla, run 1 (luminescence)": 7454, "stable assay firefly, run 1 (luminescence)": 5.06e5, "call": "inactive"}
{"gene knocked down": "CG9992", "reagent no.": 2, "stable assay Renilla, run 1 (luminescence)": 8538, "stable assay firefly, run 1 (luminescence)": 4.23e5, "call": "inactive"}
{"gene knocked down": "Grl65a (Gustatory receptor-like 65a)", "reagent no.": 1, "stable assay Renilla, run 1 (luminescence)": 5402, "stable assay firefly, run 1 (luminescence)": 2.87e5, "call": "inactive"}
{"gene knocked down": "CG8389", "reagent no.": 1, "stable assay Renilla, run 1 (luminescence)": 11203, "stable assay firefly, run 1 (luminescence)": 5.07e5, "call": "inactive"}
{"gene knocked down": "CG8389", "reagent no.": 2, "stable assay Renilla, run 1 (luminescence)": 3607, "stable assay firefly, run 1 (luminescence)": 4.12e5, "call": "inactive"}
{"gene knocked down": "CG1631", "reagent no.": 1, "stable assay Renilla, run 1 (luminescence)": 5802, "stable assay firefly, run 1 (luminescence)": 4.74e5, "call": "inactive"}
{"gene knocked down": "Dref (DNA replication-related element factor)", "reagent no.": 1, "stable assay Renilla, run 1 (luminescence)": 42588, "stable assay firefly, run 1 (luminescence)": 5.35e5, "call": "inactive"}
{"gene knocked down": "CG31782 (retired record)", "reagent no.": 1, "stable assay Renilla, run 1 (luminescence)": 6711, "stable assay firefly, run 1 (luminescence)": 5.55e5, "call": "inactive"}
{"gene knocked down": "CG31782 (retired record)", "reagent no.": 2, "stable assay Renilla, run 1 (luminescence)": 4660, "stable assay firefly, run 1 (luminescence)": 4.37e5, "call": "inactive"}
{"gene knocked down": "Bap111 (Brahma associated protein 111kD)", "reagent no.": 1, "stable assay Renilla, run 1 (luminescence)": 4479, "stable assay firefly, run 1 (luminescence)": 5.09e5, "call": "inactive"}
{"gene knocked down": "unc-13-4A", "reagent no.": 1, "stable assay Renilla, run 1 (luminescence)": 5887, "stable assay firefly, run 1 (luminescence)": 3.63e5, "call": "inactive"}
{"gene knocked down": "unc-13-4A", "reagent no.": 2, "stable assay Renilla, run 1 (luminescence)": 6195, "stable assay firefly, run 1 (luminescence)": 3.72e5, "call": "inactive"}
{"gene knocked down": "unc-13-4A", "reagent no.": 3, "stable assay Renilla, run 1 (luminescence)": 4604, "stable assay firefly, run 1 (luminescence)": 2.28e5, "call": "inactive"}
{"gene knocked down": "unc-13-4A", "reagent no.": 4, "stable assay Renilla, run 1 (luminescence)": 5411, "stable assay firefly, run 1 (luminescence)": 3.72e5, "call": "inactive"}
{"gene knocked down": "CG33460", "reagent no.": 1, "stable assay Renilla, run 1 (luminescence)": 7142, "stable assay firefly, run 1 (luminescence)": 4.52e5, "call": "inactive"}
{"gene knocked down": "Phb2 (Prohibitin 2)", "reagent no.": 1, "stable assay Renilla, run 1 (luminescence)": 4119, "stable assay firefly, run 1 (luminescence)": 5.18e5, "call": "inactive"}
{"gene knocked down": "CG15356", "reagent no.": 1, "stable assay Renilla, run 1 (luminescence)": 8975, "stable assay firefly, run 1 (luminescence)": 4.89e5, "call": "inactive"}
{"gene knocked down": "CG34300", "reagent no.": 1, "stable assay Renilla, run 1 (luminescence)": 5028, "stable assay firefly, run 1 (luminescence)": 3.79e5, "call": "inactive"}
{"gene knocked down": "Su(var)3-7 (Suppressor of variegation 3-7)", "reagent no.": 1, "stable assay Renilla, run 1 (luminescence)": 7367, "stable assay firefly, run 1 (luminescence)": 3.54e5, "call": "inactive"}
{"gene knocked down": "CG3339", "reagent no.": 1, "stable assay Renilla, run 1 (luminescence)": 4471, "stable assay firefly, run 1 (luminescence)": 3.54e5, "call": "inactive"}
{"gene knocked down": "CG3339", "reagent no.": 2, "stable assay Renilla, run 1 (luminescence)": 6531, "stable assay firefly, run 1 (luminescence)": 3.91e5, "call": "inactive"}
{"gene knocked down": "CG32373", "reagent no.": 1, "stable assay Renilla, run 1 (luminescence)": 3932, "stable assay firefly, run 1 (luminescence)": 3.00e5, "call": "inactive"}
{"gene knocked down": "Gr22d (retired record)", "reagent no.": 1, "stable assay Renilla, run 1 (luminescence)": 8402, "stable assay firefly, run 1 (luminescence)": 4.56e5, "call": "inactive"}
{"gene knocked down": "qkr58E-2 (quaking related 58E-2)", "reagent no.": 1, "stable assay Renilla, run 1 (luminescence)": 7306, "stable assay firefly, run 1 (luminescence)": 3.24e5, "call": "inactive"}
{"gene knocked down": "Ssl2 (Strictosidine synthase-like 2)", "reagent no.": 1, "stable assay Renilla, run 1 (luminescence)": 6115, "stable assay firefly, run 1 (luminescence)": 3.44e5, "call": "inactive"}
{"gene knocked down": "Ssl2 (Strictosidine synthase-like 2)", "reagent no.": 2, "stable assay Renilla, run 1 (luminescence)": 5024, "stable assay firefly, run 1 (luminescence)": 4.15e5, "call": "inactive"}
{"gene knocked down": "CG13086", "reagent no.": 1, "stable assay Renilla, run 1 (luminescence)": 7163, "stable assay firefly, run 1 (luminescence)": 4.70e5, "call": "inactive"}
{"gene knocked down": "Polr1F (RNA polymerase I subunit F)", "reagent no.": 1, "stable assay Renilla, run 1 (luminescence)": 10813, "stable assay firefly, run 1 (luminescence)": 9.55e5, "call": "inactive"}

An excerpt taken from the entries so far, for reference:
{"gene knocked down": "Su(var)3-7 (Suppressor of variegation 3-7)", "reagent no.": 1, "stable assay Renilla, run 1 (luminescence)": 7367, "stable assay firefly, run 1 (luminescence)": 3.54e5, "call": "inactive"}
{"gene knocked down": "CG3339", "reagent no.": 1, "stable assay Renilla, run 1 (luminescence)": 4471, "stable assay firefly, run 1 (luminescence)": 3.54e5, "call": "inactive"}
